Experimental data: patent publication EP0624163B1 (Smithkline Beecham Farmaceutici S.p.A., priority 1992, dated 1998)
Non-standard residues stand in square brackets, D forms with d. *: point of attachment. His(Trt) = N[C@@H](Cc1cn(C(c2ccccc2)(c2ccccc2)c2ccccc2)cn1)C(=O)O; Fmoc = O=C(OCC1c2ccccc2-c2ccccc21)*; Mtr = COc1cc(C)c(S(=O)(=O)*)c(C)c1C; Cbz = O=C(OCc1ccccc1)*; Boc = CC(C)(C)OC(=O)*; OBn = c1ccc(CO*)cc1; OtBu = CC(C)(C)O*; tBu = CC(C)(C)*

Assay: general procedure: solution-phase peptide synthesis; DCC/HOBt/DMAP; pentafluorophenyl and N-hydroxysuccinimide esters; BOP for cyclis
Settings: coupling step

Row | Substance | step yield [%]
1 | Cbz-AVGAGT(tBu)P-NH2 | 30
2 | Fmoc-S(tBu)NLS(tBu)T(tBu)-OBn | 99
3 | Fmoc-NLS(tBu)T(tBu)-OBn | 80
4 | Cbz-AVGAG-OtBu | 57.9
5 | Fmoc-Lys(Boc)-Leu-Ser(t-Bu)-Gln-Glu(O-t-Bu)-Leu-His(Trt)-Lys(Boc)-Leu-Gln-Thr(t-Bu)-Tyr(t-Bu)-Pro-A rg(Mtr)-Thr(t-Bu)-Ala-Val-Gly-Ala-Gly-Thr(t-Bu)-Pro-NH2 | 98
6 | Fmoc-Lys(Boc)-Leu-Ser(t-Bu)-Gln-Glu(O-t-Bu)-Leu-His(Trt)--Lys(Boc)-Leu-Gln-Thr(t-Bu)-Tyr(t-Bu)-Pro-Arg(Mtr)-Thr(t --Bu)-Asp(O-t-Bu)-Val-Gly-Ala-Gly-Thr(t-Bu)-Pro-NH2 | 94
7 | Fmoc-Arg(Mtr)-Thr(t-Bu)-Ala-Val-Gly-Ala-Giy-Thr(t-Bu)-Pro-NH2 | 68.8
8 | Cbz-VGAG-OtBu | 65.3

Same assay, conditions: late stage modification step

Row | Substance | step yield [%]
9 | H-R(Mtr)T(tBu)D(OtBu)VGAGT(tBu)P-NH2 | 99
10 | H-Arg-(Mtr)-Thr(t-Bu)-Ala-Val-Gly-Ala-Gly-Th r(t-Bu)-Pro-NH2 | 100
11 | H-NLS(tBu)T(tBu)-OBn | 97
12 | H-K(Boc)LS(tBu)QE(OtBu)L[His(Trt)]K(Boc)LQT(tBu)Y(tBu)PR(Mtr)T(tBu)AVGAGT(tBu)P-NH2 | 100
13 | H-AVGAGT(tBu)P-NH2 | 94
14 | Cbz-AVGAG-OH | 100
15 | Fmoc-S(tBu)NLS(tBu)T(tBu)-OH | 53.3
16 | H-VGAG-OtBu | 86
